Results are given in words; binding and its absence hold for the method and conditions named. In cells and extracts the contact can be indirect. A yes stands for co-enrichment or nearness to the bait. Other partners may have been found. Where a sequence is shown, tags or fusion partners need not be part of it.

The assay deals with T1, Spt6-3XFLAG (wild type) (S. cerevisiae (endogenous in strain S288c)) (UniProt P23615).
T1 sequence: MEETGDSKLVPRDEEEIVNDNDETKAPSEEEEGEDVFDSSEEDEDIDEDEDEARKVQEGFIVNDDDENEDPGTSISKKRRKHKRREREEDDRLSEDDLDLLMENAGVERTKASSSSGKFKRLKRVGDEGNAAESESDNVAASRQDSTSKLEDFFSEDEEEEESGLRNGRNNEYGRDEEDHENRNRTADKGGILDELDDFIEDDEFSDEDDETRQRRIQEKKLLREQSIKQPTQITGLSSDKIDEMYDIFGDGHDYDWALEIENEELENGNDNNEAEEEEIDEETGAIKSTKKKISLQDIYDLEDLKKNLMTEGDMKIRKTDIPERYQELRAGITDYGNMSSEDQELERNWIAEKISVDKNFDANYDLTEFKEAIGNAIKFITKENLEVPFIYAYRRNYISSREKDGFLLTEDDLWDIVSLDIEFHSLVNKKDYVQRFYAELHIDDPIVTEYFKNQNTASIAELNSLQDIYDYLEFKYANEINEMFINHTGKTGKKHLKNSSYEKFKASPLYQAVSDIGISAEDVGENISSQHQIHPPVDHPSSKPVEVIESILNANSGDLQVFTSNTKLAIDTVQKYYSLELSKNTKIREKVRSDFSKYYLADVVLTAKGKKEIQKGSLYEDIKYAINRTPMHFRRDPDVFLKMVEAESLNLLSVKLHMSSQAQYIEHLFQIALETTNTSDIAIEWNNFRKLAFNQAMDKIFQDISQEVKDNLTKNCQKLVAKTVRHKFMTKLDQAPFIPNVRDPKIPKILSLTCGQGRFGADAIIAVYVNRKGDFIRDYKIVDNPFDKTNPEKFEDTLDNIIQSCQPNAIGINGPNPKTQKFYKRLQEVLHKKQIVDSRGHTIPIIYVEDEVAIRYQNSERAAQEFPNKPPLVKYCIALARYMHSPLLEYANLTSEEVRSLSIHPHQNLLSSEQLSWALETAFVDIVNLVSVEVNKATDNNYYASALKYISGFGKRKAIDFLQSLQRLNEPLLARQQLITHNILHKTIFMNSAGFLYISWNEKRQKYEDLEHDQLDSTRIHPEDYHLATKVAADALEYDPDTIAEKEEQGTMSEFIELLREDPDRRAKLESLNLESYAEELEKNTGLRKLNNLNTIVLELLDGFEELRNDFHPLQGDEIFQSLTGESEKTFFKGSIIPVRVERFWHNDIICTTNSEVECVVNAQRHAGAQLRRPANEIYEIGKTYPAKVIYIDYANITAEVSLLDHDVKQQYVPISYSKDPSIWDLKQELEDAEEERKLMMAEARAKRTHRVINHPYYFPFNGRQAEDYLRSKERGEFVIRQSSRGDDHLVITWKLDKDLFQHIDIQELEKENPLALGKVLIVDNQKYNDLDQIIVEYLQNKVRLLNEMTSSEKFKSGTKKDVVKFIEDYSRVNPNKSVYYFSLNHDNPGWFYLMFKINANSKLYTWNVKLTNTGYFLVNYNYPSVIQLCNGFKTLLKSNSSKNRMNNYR
Briefly: affinity purification with mass spectrometry; Spt6-3XFLAG captured from yeast lysate on FLAG agarose (lysis buffer 40 mM HEPES-KOH pH 7.5, 10% glycerol, 350 mM NaCl, 0.1% Tween-20; DNase I and heparin), eluted with FLAG peptide; TMT-labelled quantitative LC-MS/MS; strains WT, spt6-F249K, spn1-F267E, spn1-R263D, shifted to non-permissive temperature (37 °C).

B1: Spn1 (wild type) (protein, UniProt Q06505 1-410)
chain: MSTADQEQPKVVEATPEDGTASSQKSTINAENENTKQNQSMEPQETSKGTSNDTKDPDNGEKNEEAAIDENSNVEAAERKRKHISTDFSDDDLEKEEHNDQSLQPTVENRASKDRDSSATPSSRQELEEKLDRILKKPKVRRTRRDEDDLEQYLDEKILRLKDEMNIAAQLDIDTLNKRIETGDTSLIAMQKVKLLPKVVSVLSKANLADTILDNNLLQSVRIWLEPLPDGSLPSFEIQKSLFAALNDLPVKTEHLKESGLGRVVIFYTKSKRVEAQLARLAEKLIAEWTRPIIGASDNYRDKRIMQLEFDSEKLRKKSVMDSAKNRKKKSKSGEDPTSRGSSVQTLYEQAAARRNRAAAPAQTTTDYKYAPVSNLSAVPTNARAVGVGSTLNNSEMYKRLTSRLNKKHK
Regarding B1, the binding result is reported as “binds”.
